For one assay, the target named is GABA "receptors". As to the kind of experiment: Inhibition of [3H]GABA binding to synaptic membranes from rat cerebellum. The note with it: [3H]GABA (15 nM); synaptic membrane preparations from rat cerebellum. As to the method: Once such a compound enters the CNS, its pharmacological activity could be due to the properties of the intact molecule or to its capacity to release GABA after hydrolysis. To test for the possibility that the intact molecules might be active, the capacity of Compounds 5 and 6 to inhibit the binding of [^3H]GABA to GABA "receptors" using membrane preparations of rat cerebellum were measured. IC50 values were determined by fitting data to linearized transformations, based on including at least two concentrations of antagonists above and below the IC50, with at least triplicate replication per concentration.

For assay [1], the system named is general motor activity of mice. In words: General locomotor activity of mice (Stoelting electronic activity monitor). Type of assay: in vivo, Balb/c mice. The note with it: graded 0-5. As to the method: The effect of intraperitoneal (i.p.) injections of test compounds on the general motor activity of mice during a 60-min period was determined in a Stoelting electronic activity monitor. Dose-response curves were obtained from which the half-maximally effective values were calculated and the results are shown in Table V.
The compounds were dissolved in 25% (vols.) propylene glycol in water and injected i.p. into Balb/c mice (18-24 g). Dose-response measurements were obtained for 6 animals per dose or time point. Activity was monitored for 60 min using a Stoelting Electronic Activity Monitor (EAM) apparatus to assess the general motor activity of the animals.
The general locomotor activity of mice was measured in the Stolting activity monitor apparatus during 60 min after an intraperitoneal (i.p.) injection of a test compound.

A further assay relates to CAI pyramidal cells. Type of assay: cell-based, Sprague-Dawley rats. The procedure:
Transverse slices of hippocampus (350-375 µm thick) were prepared from Sprague-Dawley rats (200-300 g) and transferred onto a nylon net fixed over a 1.5 ml superfusion chamber. The slices were maintained at 32-33°C in a humidified atmosphere of 95%/5% 02/C02. The standard medium consisted of (in mM): NaCl, 125; KCI, 3.5; CaC12,2; MgS04, 1.5; NaH2PO4, 1; NaHC03, 24; and glucose, 10. Low chloride medium was prepared by substituting sodium isethionate for sodium chloride.
Extracellular potentials were recorded with NaCI-fitted micropipettes, and stimulus pulses were applied through bipolar platinum wire electrodes. The various drugs were dissolved in fresh medium (without glucose and phosphate) and applied to the surface of the tissue by pressure ejection from a micropipette, Sakai, Swartz and Woody, (1979).
The inhibitory effectiveness of various compounds was investigated by measuring their ability to suppress the extracellular population spike recorded from the hippocampal CAI pyramidal layer and elicited by stimulation of stratum radiatum axons. The amplitude of this monosynaptic population spike is essentially proportional to the number of pyramidal cells discharging in response to a stimulus volley, Andersen, Bliss and Skrede, (1971).
The various compounds were applied as droplets to the pyramidal layer approximately 75 µm from the recording electrode. […]

On GABA "receptors", `NCCCC(=O)O` [GABA, gamma-aminobutyric acid] registered an IC50 of 70 nM. Further, in assay [1], the “In Vivo Inhibition of General Motor Activity” value was 0. In the assay with CAI pyramidal cells, the “inhibition of the evoked population spike” value is “rapid, dose-dependent inhibition”.

A word on the IC50: it is the concentration that inhibits the measured activity by half.

For the origin of these results see patent EP0133795B1, “Gaba esters and gaba analogue esters” (THE McLEAN HOSPITAL CORPORATION, priority 1983, dated 1985).
